Assay results reported in patent publication US20120039810, “APTAMER-CONTAINING COMPOSITIONS AND METHODS FOR TARGETING E-SELECTIN” (published 2012).
Where cells or extracts were used, other partners may take part. For some assays here: The exact form of at least one protein or probe is not confirmed. For some assays here: The comparison behind a weaker result is the experiment's own reference, which may not be listed here.

Protein sequences, listed by entry. Tags and fused reporters are not part of them. Residues count along the entry.
UniProt Q00690, 22-612: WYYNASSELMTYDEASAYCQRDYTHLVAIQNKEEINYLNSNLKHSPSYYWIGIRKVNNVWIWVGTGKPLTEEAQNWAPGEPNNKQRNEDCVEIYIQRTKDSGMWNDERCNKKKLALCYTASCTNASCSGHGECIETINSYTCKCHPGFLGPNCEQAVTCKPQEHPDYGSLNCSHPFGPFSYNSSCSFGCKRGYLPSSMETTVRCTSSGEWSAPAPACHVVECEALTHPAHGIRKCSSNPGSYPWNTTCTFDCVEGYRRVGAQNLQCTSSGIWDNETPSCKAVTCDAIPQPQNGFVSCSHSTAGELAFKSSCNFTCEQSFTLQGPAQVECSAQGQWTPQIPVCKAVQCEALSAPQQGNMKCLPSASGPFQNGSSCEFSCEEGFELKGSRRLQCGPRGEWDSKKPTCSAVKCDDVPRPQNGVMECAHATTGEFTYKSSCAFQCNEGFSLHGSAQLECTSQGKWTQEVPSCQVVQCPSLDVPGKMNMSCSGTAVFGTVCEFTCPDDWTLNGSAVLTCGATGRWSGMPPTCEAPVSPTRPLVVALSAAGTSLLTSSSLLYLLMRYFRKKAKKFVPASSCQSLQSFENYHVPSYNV
UniProt P16581, 22-610: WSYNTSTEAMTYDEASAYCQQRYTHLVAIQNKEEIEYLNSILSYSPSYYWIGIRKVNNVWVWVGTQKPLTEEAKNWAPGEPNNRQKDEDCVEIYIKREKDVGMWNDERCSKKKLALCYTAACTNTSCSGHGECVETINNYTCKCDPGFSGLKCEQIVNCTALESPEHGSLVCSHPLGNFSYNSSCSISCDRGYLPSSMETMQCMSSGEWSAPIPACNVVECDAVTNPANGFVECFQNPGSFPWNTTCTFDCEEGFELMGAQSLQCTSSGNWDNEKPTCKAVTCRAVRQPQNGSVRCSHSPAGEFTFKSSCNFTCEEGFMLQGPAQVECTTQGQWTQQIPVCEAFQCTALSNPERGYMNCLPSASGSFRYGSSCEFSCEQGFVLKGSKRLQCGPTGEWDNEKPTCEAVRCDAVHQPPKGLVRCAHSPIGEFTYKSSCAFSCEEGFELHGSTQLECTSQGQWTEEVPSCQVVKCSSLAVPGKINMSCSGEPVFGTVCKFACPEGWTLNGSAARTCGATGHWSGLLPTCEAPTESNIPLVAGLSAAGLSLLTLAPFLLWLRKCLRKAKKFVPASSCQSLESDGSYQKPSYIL

target: E-selectin on 4T1 tumor vasculature endothelium (UniProt Q00690); assay: binding assay; details: 5'-monothiophosphate (Rp) on all dA except in primer-binding region; in vivo accumulation on 4T1 tumor vasculature after i.v. injection; blocked by anti-E-selectin antibody pretreatment; protein on the cell surface; label: Cy3; single-stranded DNA; variant of ESTA-1 (TA-1)

Sequence	binding result
CGCTCGGATCGATAAGCTTCGATCCCACTCTCCCGTTCACTTCTCCTCACGTCACGGATCCTCTAGAGCACTG [ESTA-1 Cy3-labeled]	binds

target: E-selectin on ES-Endo cells (Tet-on HMVEC) (UniProt P16581); assay: binding assay; details: 5'-monothiophosphate (Rp) on all dA except in primer-binding region; fluorescence microscopy, 37 C; doxycycline-dependent, detectable at 50 nM, blocked by anti-E-selectin antibody H18/7 but not normal IgG; protein on the cell surface; label: Cy3; single-stranded DNA; variant of ESTA-1 (TA-1)

Sequence	binding result
CGCTCGGATCGATAAGCTTCGATCCCACTCTCCCGTTCACTTCTCCTCACGTCACGGATCCTCTAGAGCACTG [ESTA-1 Cy3-labeled]	binds

same assay, conditions: 5'-monothiophosphate on dA; flanked by primer regions; 100 nM, 37 C; minor or weak doxycycline-dependent binding with high background; protein on the cell surface; label: Cy3; single-stranded DNA

Sequence	binding result
ACCCTACTACACCATCTCACCTCAACCCTC [representative thioaptamer random region SEQ 42]	binds more weakly
CCCTCCCCTATACCACTGTCAACTTCCACT [representative thioaptamer random region SEQ 41]	binds more weakly
CCTCCACTCCTCCCTTCACTCTACCCACCC [representative thioaptamer random region SEQ 43]	binds more weakly
CCTGCACCTCCACCCTACACACTAAACGCG [representative thioaptamer random region SEQ 45]	binds more weakly
GCCCCACACCTCCAACACACGCGCCTCCGC [representative thioaptamer random region SEQ 48]	binds more weakly
GCCCTACACTCACCCTCACCCAGACACACC [representative thioaptamer random region SEQ 47]	binds more weakly
GCCTTCTCCTGGACTCCACTTCACTCCGTG [representative thioaptamer random region SEQ 44]	binds more weakly
TCCCCGTCCTTTCTCTTCCCTTCCCCTCGG [representative thioaptamer random region SEQ 39]	binds more weakly
TCCTCTCCTCTCGTGTATCCACTCCACACA [representative thioaptamer random region SEQ 46]	binds more weakly
TCCTTCCCAGTTCCATCTTATCCTCCTCGG [representative thioaptamer random region SEQ 49]	binds more weakly
TCTCCCTCCTTCTCCTCTCCTCGCTTCACC [representative thioaptamer random region SEQ 38]	binds more weakly
TTCCCGCACTCCTCCATCCTCCCTTCACAC [representative thioaptamer random region SEQ 40]	binds more weakly
